Experimental data from PubChem BioAssay AID328 (DTP/NCI, 2004).
The list shows only some results of the screen, not a fair sample: it is rich in T/C values a quarter to a half above the control, in often repeated tests (any T/C) and in doses without a T/C. Other doses and runs of a compound stand elsewhere. T/C: endpoint of the treated group in % of that of the vehicle group. Some entries give survivors of the animals treated and no T/C: the source holds a T/C of zero for them, seemingly a mark for toxic or unscored doses. Some doses without a T/C left all or most animals alive at the check, yet need not have been tolerated: the source hardly ever lists a survival T/C far under the control, and the zero likely stands for such cases as well. Counts of survivors are from the toxicity check (mostly the fifth day) where no day follows; animals may have died later. Schedule codes are those of the source, taken here to give the interval after Q, in days (D) or hours (H), and the number of doses after X. Some entries were tested several times; the results are listed from low to high. For survival time, the PubChem record calls one and a half times the control and up active, and a quarter to a half above the control has no call in these data; cut-offs in other NCI protocols can differ. Some T/C values carry the count of animals alive at the toxicity check (mostly the fifth day); where none is given, no animal had died by that day. Marks such as (2×) say how often a value occurs here.

Test system: BDF1 mice, P388 leukemia ip, median survival T/C
Experiment: NCI In Vivo Anticancer Drug Screen. Data for tumor model P388 Leukemia (intraperitoneal) in B6D2F1 (BDF1) mice
Details: T/C endpoint: median survival time, vehicle: Klucel (hydroxypropylcellulose) (HPC), higher T/C = longer survival
In short: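 T/C = treated-group survival ÷ vehicle-control survival; tumour transplanted into mice before dosing.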

[1] = dose: 50.0 mg/kg/injection, schedule: Q01DX009 (ip)
[2] = dose: 100.0 mg/kg/injection, schedule: Q01DX009 (ip)

## CN(Cc1cnc2nc(N)nc(N)c2n1)c1c(Cl)cc(C(=O)NC(CCC(=O)O)C(=O)O)cc1Cl (stereo not drawn)
dose: 50.0 mg/kg/injection, schedule: Q01DX001 (ip), evaluated on day 30
  T/C: 95, 110, 111, 118, 120, 122 (2×), 123, 124, 125 (2×), 128 (2×), 129, 130, 132, 133, 135, 136, 138, 145, 147 (2×), 151, 152, 153, 159, 160, 167 % of control
dose: 50.0 mg/kg/injection, schedule: Q01DX001 (ip), evaluated on day 35
  T/C: 129 and 133 % of control
dose: 50.0 mg/kg/injection, schedule: Q01DX001 (ip)
  survivor count: 3 of 3
dose: 50.0 mg/kg/injection, schedule: Q01DX005 (ip), evaluated on day 30
  T/C: 106, 113, 135, 144, 150, 151, 153, 154, 157, 162, 164, 166, 170, 174 (2×), 177, 183 (2×), 188, 194, 195, 196, 205, 206, 207, 211, 221, 228, 229, 233, 241, 250, 254, 256 % of control
dose: 50.0 mg/kg/injection, schedule: Q01DX005 (ip), evaluated on day 35
  T/C: 173 % of control
[1]
  T/C: 100, 106 (2×), 132, 135, 141, 146, 175, 180, 184, 186, 193, 195, 200, 204, 207, 210, 223, 225 (2×), 226, 232, 239, 241, 250, 253, 255, 258, 263 (2×), 264, 267 (2×), 283 % of control
  survivor count: 3 of 6
dose: 50.0 mg/kg/injection, schedule: Q04DX002 (ip), evaluated on day 30
  T/C: 111, 121, 125, 126, 127, 128, 129, 130 (2×), 132, 136, 140, 141, 142, 144, 145, 146, 147, 149, 150, 153, 154, 157, 159 (2×), 160, 163 (2×), 164, 173, 188, 291 % of control
dose: 50.0 mg/kg/injection, schedule: Q04DX002 (ip), evaluated on day 35
  T/C: 155 % of control
dose: 50.0 mg/kg/injection, schedule: Q04DX003 (ip), evaluated on day 30
  T/C: 117 (2×), 126, 128, 129, 136 (2×), 140, 141, 144 (3×), 148, 151 (2×), 152, 156 (2×), 160, 162, 163, 164, 170, 172, 175 (3×), 180, 184 (2×), 194, 197 [2 of 3 alive], 202 % of control
dose: 50.0 mg/kg/injection, schedule: Q04DX003 (ip), evaluated on day 35
  T/C: 165 and 220 % of control
dose: 50.0 mg/kg/injection, schedule: Q04DX003 (ip)
  survivor count: 2 of 3
dose: 100.0 mg/kg/injection, schedule: Q01DX001 (ip), evaluated on day 30
  T/C: 100, 104, 114, 117, 118 (2×), 124, 133, 134, 136 (2×), 138 (2×), 140 (2×), 142, 145, 151 (2×), 154, 155, 156, 158, 163, 167, 172, 176 (2×), 188 % of control
dose: 100.0 mg/kg/injection, schedule: Q01DX001 (ip), evaluated on day 35
  T/C: 125 and 155 % of control
dose: 100.0 mg/kg/injection, schedule: Q01DX001 (ip)
  survivor count: 3 of 3
dose: 100.0 mg/kg/injection, schedule: Q01DX005 (ip), evaluated on day 30
  T/C: 123, 151, 154, 157, 160, 162 [4 of 6 alive], 176 (2×), 176 [2 of 3 alive], 184, 186, 187, 190 [5 of 6 alive], 194, 200, 201, 213, 215, 217, 219, 227, 230, 231, 236, 240, 241, 242 [5 of 6 alive], 247, 254 [5 of 6 alive], 277 % of control
dose: 100.0 mg/kg/injection, schedule: Q01DX005 (ip), evaluated on day 35
  T/C: 182 % of control
dose: 100.0 mg/kg/injection, schedule: Q01DX005 (ip)
  survivor count: 5 of 6 and 3 of 3
[2]
  T/C: 87, 88, 89, 91, 92, 108, 109, 112, 115, 116, 120, 140, 186, 200, 203, 209, 222, 225, 226, 230, 241 (2×), 243 (2×), 255, 264, 277 % of control
  survivor count: 4 of 6, 3 of 3, 6 of 6
dose: 100.0 mg/kg/injection, schedule: Q04DX002 (ip), evaluated on day 30
  T/C: 116, 129, 130, 134, 139 (2×), 147, 151, 153, 154, 155, 156, 158, 160, 163 (2×), 166, 168 (2×), 172, 174, 177, 179, 182, 186, 188, 193 (2×), 200, 205, 208, 211, 228 % of control
dose: 100.0 mg/kg/injection, schedule: Q04DX002 (ip), evaluated on day 35
  T/C: 163 % of control
dose: 100.0 mg/kg/injection, schedule: Q04DX003 (ip), evaluated on day 30
  T/C: 109, 119, 138, 146, 149, 154 [5 of 6 alive], 156 (3×), 160, 161 (2×), 161 [5 of 6 alive], 163, 169 [2 of 3 alive], 172 (2×), 173, 174, 180, 182, 184, 190, 191, 194, 197 (3×), 204, 211, 216 [2 of 2 alive], 227, 232, 247 % of control
